Screen size: about 52,000 sequences; about 210 (0.4%) were called active.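 Rule for the calls: active = gene whose silencing raises cell survival under the drug, median off-target-corrected z-score across its silencing RNAs 2 or more; inactive = the rest.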 Some of the results follow.

The assay can be described thus: Resistance to Poly (ADP-Ribose) Polymerase inhibitor: Gene Identification via Genome-wide siRNA Screen. Particulars: mouse BRCA2 R2336H ES cells, olaparib, CellTiter-Glo viability; stronger effect = higher value. An outline of the steps: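 Mouse BRCA2 R2336H ES cells were reverse-transfected with siRNA (20 nM final), treated at 48 h with 500 nM olaparib, and read by CellTiter-Glo after 72 h. Scores: MAD-based z per siRNA, median per gene, seed off-target correction.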
On the technique in general: In ATP-based viability assays light output follows the ATP content of the culture.
GGUUCAAGAAAAAACCCAATT against Ezh1: the z-score is inactive: 0.411.

Turning to GGAUUUGACUGAGAAAGACTT against LOC545925, the z-score was inactive: -0.638.

Turning to CCAAAACAAUACUCACCACTT against Mfap4, the z-score was inactive: 0.163.

Regarding GGUGGAUGCAAUUCUCUGUTT against Qdpr, the z-score was inactive: 0.539.

Consider “GGUCCUAAUGCACUUUUUATT against 1700093K21Rik”, for which the z-score is inactive: 0.736.

Turning to GCCUGACAUUGGGACAAAGTT against Trim34, the z-score is inactive: -0.667.

GGAUUGCCAUCUGUGGUGCTT against Ltb4dh: the z-score was inactive: 0.0916.

As for “CCCGCACAUGAAAUCCGCUTT against 3110032G18Rik”, the z-score is inactive: -0.425.

For the sequence GCAUUAUACCUGUCAAGUUTT against Klk1, the z-score was inactive: -1.34.

Regarding GGUUCUAGCAAACGGAGAATT against Phf12, the z-score was inactive: -1.12.

Consider GGUUCUAUCUGAUAGGCGATT against Gdf9, for which the z-score is inactive: -0.697.

For GCGGCUUUGGAAUGACUCUTT against Samd8, the z-score was inactive: 1.28.

As for GGUCCAGCUGUUCAUGACUTT against Kcnn4, the z-score is inactive: -0.583.

On to “GCUACAAACAAAAGUGGCCTT against 2810453L12Rik”, for which the z-score was inactive: 0.097.

For “GGGAACCGUUCUUUACUUATT against D430018P08”, the z-score is inactive: 0.64.

GGAUCAUCAAGGACUUCAUTT against Ppil1: the z-score is inactive: -1.39.

Consider “GGUCAACUUUCUACAAAAGTT against 1700001M19Rik”, for which the z-score was inactive: 0.662.

Regarding GGGACAUCUUCUCCAAUGATT against Slc24a3, the z-score is inactive: -1.66.

With GGAACCUACUGCUACAUCATT against Sftpc, the z-score is inactive: 3.16.

Take GCAGGUGAAAAGCAAUCCUTT against Mpn: the z-score was inactive: -0.145.

On to “GGAUAGGAUUCGAUGUCGUTT against 2310079N02Rik”, for which the z-score is inactive: 0.36.

As for GGACGGCUCUAAAGAUGAGTT against Spin, the z-score was inactive: -0.551.

GGACAUGAGGACUGUAUCATT against Clec4g: the z-score is inactive: 1.46.

On to GGAAUUUGCCUAUAUGAAGTT against Riok2, for which the z-score is inactive: 0.433.

In the case of GGUUGUUCGAGGAAUAUCCTT against Cmya3, the z-score was inactive: 0.377.

For CGUUCAGUGUCUGCAGGUUTT against Mrps12, the z-score was inactive: -2.86.

With GGGUAUGAUGUGAUUGCUCTT against Eif4a2, the z-score was inactive: -0.664.

As to GCCACUUACUUUUCUGAAATT against Commd7, the z-score was inactive: -0.435.

Regarding CCACAGUGAAUCGAGCUUATT against Olfr685, the z-score is inactive: -0.614.

CCAGAUAUGAUGGUGCAAGTT against Sfrp4: the z-score was inactive: 2.26.

On to GGACAGCAUUCUGAGCAGUTT against Cx3cr1, for which the z-score was inactive: -0.156.

On to “GGUUCAUGGAGAAGAAUCUTT against D1Ertd161e”, for which the z-score was inactive: 0.156.

For GGACCACGCAAAAGAAUAUTT against Mtss1, the z-score was inactive: -1.51.

Consider GGACUGCUAUGGGUCUUCATT against Clk3, for which the z-score was inactive: -1.64.

Regarding GCCCAACAACGCAGAAUUUTT against Cyp4v3, the z-score is inactive: 2.

For GCUGAACCAAACCCAAAUGTT against Snph, the z-score was inactive: -1.59.

On to CGGGACCUAUGUGAUCAUGTT against Casp1, for which the z-score is inactive: -0.201.

For the sequence “GGAGCUCAUCUUCACAGGCTT against D4Ertd765e”, the z-score is inactive: -0.574.

As to GCGGCUUUGGCAAUUCUCUTT against Olfr1361, the z-score is inactive: -1.31.

Consider GGCUACACAAGAAGAUUCUTT against Stk22s1, for which the z-score is inactive: 1.41.

With GCAUUUCACUUUGAGAAAUTT against Ahrr, the z-score is inactive: -0.531.

In the case of “CCUCAAAACAGUGUGGACATT against 9630041A04Rik”, the z-score is inactive: -1.51.

Turning to GGUCUCAGGCUCAACUCAATT against LOC619945, the z-score is inactive: 0.684.

Regarding GCGAUUUGUCUAGUCCAAATT against Zfp622, the z-score was inactive: -0.365.

For the sequence “CGUACAUGCUCCUUCUAUCTT against 2900005J15Rik”, the z-score is inactive: 0.537.

As for GGUUGACAUGGUUCAGUCATT against Tcf23, the z-score was inactive: -0.516.

Take GGACAUCGUGCUCUAUCUCTT against Nrarp: the z-score was inactive: 0.496.

For GCAUACGAGGAAACUACAUTT against Chm, the z-score was inactive: -0.972.

For the sequence “GGAUUUUGAAGACAUCUGUTT against D2Ertd435e”, the z-score is inactive: 0.651.

Regarding GGACAGUUUAAGGACAACATT against Mopt, the z-score was inactive: 1.2.

Consider “GGAUCCUGGUCCAAACUUUTT against 0610007C21Rik”, for which the z-score is inactive: 2.42.

As to “GGGUUCAUUCUUAUGUAUGTT against 2600010E01Rik”, the z-score is inactive: 0.967.

On to GGUUGAUGAGUUUAGGUUUTT against Cpsf2, for which the z-score was inactive: 0.588.

GGACUGCACUGUCAUGGUATT against Coro1b: the z-score is inactive: 0.641.

Regarding GGCUGGAAAAUCAAUUCUUTT against Siat8d, the z-score is inactive: -1.1.

Consider CCACCUCUCAAAUAAAACATT against Cyp2a5, for which the z-score is inactive: -0.299.

For GCAAAAGCUAAUAAACUUGTT against Acox2, the z-score is inactive: 0.354.

As to “GCGGCAUACUCCAACUUCUTT against 2810024B22Rik”, the z-score is inactive: 1.

Regarding GGAAUGGACCGGGUUCAUCTT against Fcmd, the z-score was inactive: 0.578.

With GCAGGGAAUAGCAAACUUATT against Nfil3, the z-score was inactive: -0.0131.

Regarding GCGGGAACUUAAAGUUUACTT against Yars, the z-score was inactive: 1.87.

CCACUGAUUGUUGACUGCUTT against Trip6: the z-score is inactive: -1.07.

For the sequence GGAGCGUGACUUUGUAUAATT against Ly6g6e, the z-score is inactive: -1.25.

For the sequence CCCACAUCUUAACUUGUUGTT against Rab5c, the z-score was inactive: 0.385.

On to “CGUCCAACCACAGAUCUACTT against 4921536K21Rik”, for which the z-score is inactive: -2.44.

GGUCAAUUCCAUGAUUACGTT against Pgm3: the z-score is inactive: 0.801.

Turning to GGUUGACAACCACCUUUUUTT against Pip5k2a, the z-score is inactive: -0.105.

Regarding GCGGAAGUAAGCUUGGAUGTT against BC023835, the z-score was inactive: -1.54.

In the case of “GGGAAUCAUUAAAUAGGAUTT against 4933432P15Rik”, the z-score was inactive: -0.0673.

On to GGAGUUAUUCUAGGAAUAUTT against BC014805, for which the z-score was inactive: 0.624.

In the case of “GGAAGUCUUCCAUGAUAUUTT against 4933400A11Rik”, the z-score was inactive: -1.5.

With GCAGGGUUUCAAAGAUAACTT against Npepl1, the z-score was inactive: 0.0866.

GGAAAACAAAUUCAAGUGCTT against Tex9: the z-score was inactive: 0.00647.

With AUGCAGUCAGAGACAGACCTT against MGC118210, the z-score was inactive: 0.968.

On to GCCCGUCACAAUCAUUACCTT against Zfp523, for which the z-score is inactive: -1.12.

Regarding CGAAUUGAAUUCUACGAACTT against Pmm2, the z-score was inactive: -0.109.

In the case of CGCCAAUUCAUCGUUGACUTT against Ccl3, the z-score was inactive: 2.11.

For “CGUAAAUGGCGAUUGAUCUTT against 2810465F10Rik”, the z-score was inactive: -0.8.

In the case of CCAUCCUCAACAAGAUCGATT against Rab4b, the z-score was inactive: 1.07.

In the case of GGACCAGUGUCUUUUCAGATT against Hmmr, the z-score was inactive: 1.02.

In the case of AGUCACAGUAAUCUCCUACTT against LOC435366, the z-score is inactive: 0.0969.

With “CCGUGUCAUUUGGAGAGCUTT against 2310003L22Rik”, the z-score is inactive: 1.8.

As for GGUUGAUUUGUAGGGAGAGTT against Olfr1110, the z-score was inactive: -0.429.

With “GGAUCAGAUGAUAAACCAUTT against 4833441J24Rik”, the z-score was inactive: -1.54.

Take GCACUACUGAUGGGUUUCUTT against Nme2: the z-score was inactive: -1.88.

As for GCCCUGCUAGACAUUCUCUTT against Arrdc1, the z-score is inactive: 0.0233.

For the sequence CCAAUCAGCAACUUCUUAUTT against Fbxl21, the z-score was inactive: -0.295.

Turning to AUGGUGCUGUUUUAUUUGUTT against Olfr671, the z-score was inactive: -0.904.

GGCAGUGCUGGCAACAAAUTT against Hsd3b5: the z-score is inactive: 0.712.

GGCACCGAGAUUGUCAUUCTT against Olfr1246: the z-score was inactive: 0.346.

Turning to “GGAGCUGAAAAAACUGAAGTT against 9130017A15Rik”, the z-score was inactive: -2.5.

For GAAGUUCAAUGGAGAAGACTT against Arl2, the z-score was inactive: -1.07.

In the case of CCAUACACAUGUAAUUCUCTT against Wig1, the z-score is inactive: 0.586.

Take “CCACAGUCUAUUCAAACUUTT against B130055D15Rik”: the z-score is inactive: -0.946.

As for “GGAUAACCUUAACUUCUGATT against 2810449C13Rik”, the z-score is inactive: 2.16.

As for “GGUGACUGGUUUGUUGCUUTT against 5730458D16Rik”, the z-score was inactive: 0.0248.

Take GGAAAAGUGAUAGUGGCUCTT against Ccnl2: the z-score is inactive: -0.21.

For the sequence GGGUCUGGAGAAUCUUCAGTT against Tgfb1i1, the z-score was inactive: -0.83.

Take GGUUUAAAUGCAGUUCACATT against Arl9: the z-score was inactive: -0.447.

For GGAGGAGUUCAUUGAGGCATT against Elf5, the z-score is inactive: 0.521.

As to GCAAGAGGAGGACGAAAAGTT against Ssna1, the z-score was inactive: -2.39.

For the sequence CCAAGAGCUAUGUUGGUUUTT against Txln, the z-score was inactive: -0.579.

Turning to “CGCCUUCCUUCAACACGCATT against 1700049L16Rik”, the z-score is inactive: -0.258.

For the sequence CGAUGGGUAGUGUUUUAACTT against Mpra, the z-score is inactive: 1.19.
